Results published in article PMC12504463.
No constants are given. Whether binding was seen depends on the method and setting. Binding seen in cells or lysates may run through a third protein. Some binding calls cover weakened binding; strength is not graded here.

The chains behind the UniProt entries cited, without tags or fusion partners.
UniProt O14503: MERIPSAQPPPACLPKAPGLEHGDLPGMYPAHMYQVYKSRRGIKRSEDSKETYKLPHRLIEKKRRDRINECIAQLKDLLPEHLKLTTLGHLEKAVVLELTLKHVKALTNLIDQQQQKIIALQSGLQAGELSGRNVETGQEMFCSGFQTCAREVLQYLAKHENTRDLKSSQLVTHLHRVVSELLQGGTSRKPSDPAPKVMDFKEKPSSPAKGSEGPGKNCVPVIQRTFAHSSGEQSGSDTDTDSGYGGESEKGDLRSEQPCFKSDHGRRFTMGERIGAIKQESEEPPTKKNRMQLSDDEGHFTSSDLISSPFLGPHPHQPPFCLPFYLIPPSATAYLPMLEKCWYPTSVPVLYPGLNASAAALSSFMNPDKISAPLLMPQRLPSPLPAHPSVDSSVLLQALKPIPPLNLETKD

Biological target: DEC1 (BHLHE40), basic HLH transcription factor (UniProt O14503)
Experiment: co-IP; lysates of HEK-293T cells overexpressing ID4 and DEC1 (or EV); pre-incubated with non-immune IgG 2 h at 4 °C; immunoprecipitated with 2 μg Flag antibody or IgG at 4 °C overnight; A/G PLUS Agarose beads; washed with cold PBS; immunoblotting

binding | Binder
binds | inhibitor of differentiation 4 (ID4), wildtype (protein, UniProt P47928 1-161) MKAVSPVRPSGRKAPSGCGGGELALRCLAEHGHSLGGSAAAAAAAAAARCKAAEAAADEPALCLQCDMNDCYSRLRRLVPTIPPNKKVSKVEILQHVIDYILDLQLALETHPALLRQPPPPAPPHHPAGTCPAAPPRTPLTALNTDPAGAVNKQGDSILCR
no binding | ID4 mutant (Q65R) (protein, UniProt P47928 1-161) MKAVSPVRPSGRKAPSGCGGGELALRCLAEHGHSLGGSAAAAAAAAAARCKAAEAAADEPALCLRCDMNDCYSRLRRLVPTIPPNKKVSKVEILQHVIDYILDLQLALETHPALLRQPPPPAPPHHPAGTCPAAPPRTPLTALNTDPAGAVNKQGDSILCR
